# Data as given in PubChem BioAssay AID334 (DTP/NCI, 2004).
# The list shows only some results of the screen, not a fair sample: it is rich in T/C values a quarter to a half above the control, in often repeated tests (any T/C) and in doses without a T/C. Other doses and runs of a compound stand elsewhere. T/C: endpoint of the treated group in % of that of the vehicle group. Some entries give survivors of the animals treated and no T/C: the source files T/C as zero there, which appears to mark a toxic dose or a test without result, not a measured value. Some survivor counts are full or nearly so, which does not show that the dose was tolerated: the source hardly ever lists a survival T/C far under the control, and the zero likely stands for such cases as well. Survivors were counted at the toxicity check, usually on the fifth day, unless a day is given; later deaths do not show. Schedules are NCI's codes, read here as Q, the interval in days (D) or hours (H), X, the number of doses. Some doses were run more than once; the results are listed from low to high. For survival time, this PubChem deposit counts one and a half times the control or more as active, and values a quarter to a half above the control carry no call in these data; other NCI protocols may use other cut-offs. Some T/C values are followed by the survivors on the day toxicity was checked, most often the fifth; where none is given, no animal had died by that day.
# Test system: CD2F1 mice, intracerebral P388 leukemia, median survival T/C%
# Assay: NCI In Vivo Anticancer Drug Screen. Data for tumor model P388 Leukemia (intracerebral) in CD2F1 (CDF1) mice
# Conditions: T/C endpoint: median survival time, higher T/C = longer survival
# Experimental: The antitumor activity of compounds was measured in mice bearing transplantable tumors. Survival or tumor size were measured and the results are expressed as the measurement made in the treated group (T) divided by the measurement made in the vehicle treated control group (C). The tumor model used in this assay is P388 Leukemia (intracerebral) in CD2F1 (CDF1) mice
# [1] = dose: 64.0 mg/kg/injection, schedule: Q01DX009 (ip), vehicle: saline with Tween-80
# [2] = dose: 8.0 mg/kg/injection, schedule: Q01DX009 (ip), vehicle: saline with Tween-80
compound,measurement,setting,value
CO[C@H]1C[C@@H]2CC[C@@H](C)[C@@](O)(O2)C(=O)C(=O)N2CCCC[C@H]2C(=O)O[C@H]([C@H](C)C[C@@H]2CC[C@@H](O)[C@H](OC)C2)CC(=O)[C@H](C)C=C(C)[C@@H](O)[C@@H](OC)C(=O)[C@H](C)C[C@H](C)/C=C/C=C/C=C1C,T/C,"dose: 12.5 mg/kg/injection, schedule: Q01DX009 (ip), vehicle: gum acacia",138 % of control [9 of 10 alive]
same,T/C,"dose: 25.0 mg/kg/injection, schedule: Q01DX009 (ip), vehicle: gum acacia",133 % of control
same,T/C,"dose: 50.0 mg/kg/injection, schedule: Q01DX009 (ip), vehicle: gum acacia",130 % of control [9 of 10 alive]
same,T/C,"dose: 100.0 mg/kg/injection, schedule: Q01DX009 (ip), vehicle: gum acacia",130 % of control
same,T/C,"dose: 200.0 mg/kg/injection, schedule: Q01DX009 (ip), vehicle: gum acacia",137 % of control [8 of 10 alive]
CC[C@H]1CN2CCc3cc(OC)c(OC)cc3[C@@H]2C[C@@H]1C[C@H]1NCCc2cc(OC)c(OC)cc21,survivor count,"dose: 16.0 mg/kg/injection, schedule: Q01DX005 (ip), vehicle: Klucel (hydroxypropylcellulose) (HPC)",5 of 10 and 8 of 10
CCCCCC(=O)O[C@]1(C(C)=O)CC[C@H]2[C@@H]3CCC4=CC(=O)CC[C@]4(C)[C@H]3CC[C@@]21C,T/C,[1],133 % of control
C#C[C@]1(O)CC[C@H]2[C@@H]3CCc4cc(O)ccc4[C@H]3CC[C@@]21C,survivor count,[2],6 of 6
same,T/C,"dose: 128.0 mg/kg/injection, schedule: Q01DX009 (ip), vehicle: saline with Tween-80",132 % of control
same,T/C,"dose: 256.0 mg/kg/injection, schedule: Q01DX009 (ip), vehicle: saline with Tween-80",130 % of control [5 of 6 alive]
COc1cc(C[C@H]2c3cc(OC)c(OC)cc3CCN2C)c(Oc2cc3c(cc2OC)-c2c(OC)c(OC)cc4c2[C@H](C3)N(C)CC4)cc1OC,survivor count,"dose: 400.0 mg/kg/injection, schedule: Q01DX005 (ip), vehicle: Klucel (hydroxypropylcellulose) (HPC)","0 of 10, 1 of 8, 3 of 10"
O=C1c2c(O)ccc(O)c2C(=O)c2c(NCCNCCO)ccc(NCCNCCO)c21,survivor count,"dose: 4.0 mg/kg/injection, schedule: Q01DX009 (ip), vehicle: saline with Tween-80",10 of 10
same,survivor count,[2],10 of 10
same,survivor count,"dose: 16.0 mg/kg/injection, schedule: Q01DX009 (ip), vehicle: saline with Tween-80",10 of 10
same,survivor count,"dose: 32.0 mg/kg/injection, schedule: Q01DX009 (ip), vehicle: saline with Tween-80",4 of 10
same,survivor count,[1],0 of 10
COc1cc2c(c3c1c(=O)c1ccccc1n3C)C=CC(C)(C)O2,T/C,"dose: 128.0 mg/kg/injection, schedule: Q01DX005 (ip), vehicle: Klucel (hydroxypropylcellulose) (HPC)",130 % of control
same,survivor count,"dose: 256.0 mg/kg/injection, schedule: Q01DX005 (ip), vehicle: Klucel (hydroxypropylcellulose) (HPC)",2 of 10
same,survivor count,"dose: 512.0 mg/kg/injection, schedule: Q01DX005 (ip), vehicle: Klucel (hydroxypropylcellulose) (HPC)",0 of 10
same,survivor count,"dose: 1024.0 mg/kg/injection, schedule: Q01DX005 (ip), vehicle: Klucel (hydroxypropylcellulose) (HPC)",0 of 10 and 3 of 10
